Binding data for one substance are collected here from article PMC3420946.

Sequences of proteins named here, by UniProt entry; tags and fusion partners are left off.
UniProt P22366: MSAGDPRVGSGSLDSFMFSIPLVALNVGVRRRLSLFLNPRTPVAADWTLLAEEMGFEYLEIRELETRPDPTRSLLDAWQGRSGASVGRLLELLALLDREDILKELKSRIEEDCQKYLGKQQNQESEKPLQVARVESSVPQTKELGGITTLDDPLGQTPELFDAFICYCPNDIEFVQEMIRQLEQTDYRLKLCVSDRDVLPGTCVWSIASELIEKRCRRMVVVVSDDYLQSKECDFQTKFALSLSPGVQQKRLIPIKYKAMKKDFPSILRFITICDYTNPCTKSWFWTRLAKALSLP

These are yes or no findings as the source states them, for the method shown. Binding seen in cells or lysates may run through a third protein.

The target of the test is T1, Toll like receptor 7 (TLR7) (mouse (endogenous in BMDCs)) (UniProt P58681).
T1 sequence: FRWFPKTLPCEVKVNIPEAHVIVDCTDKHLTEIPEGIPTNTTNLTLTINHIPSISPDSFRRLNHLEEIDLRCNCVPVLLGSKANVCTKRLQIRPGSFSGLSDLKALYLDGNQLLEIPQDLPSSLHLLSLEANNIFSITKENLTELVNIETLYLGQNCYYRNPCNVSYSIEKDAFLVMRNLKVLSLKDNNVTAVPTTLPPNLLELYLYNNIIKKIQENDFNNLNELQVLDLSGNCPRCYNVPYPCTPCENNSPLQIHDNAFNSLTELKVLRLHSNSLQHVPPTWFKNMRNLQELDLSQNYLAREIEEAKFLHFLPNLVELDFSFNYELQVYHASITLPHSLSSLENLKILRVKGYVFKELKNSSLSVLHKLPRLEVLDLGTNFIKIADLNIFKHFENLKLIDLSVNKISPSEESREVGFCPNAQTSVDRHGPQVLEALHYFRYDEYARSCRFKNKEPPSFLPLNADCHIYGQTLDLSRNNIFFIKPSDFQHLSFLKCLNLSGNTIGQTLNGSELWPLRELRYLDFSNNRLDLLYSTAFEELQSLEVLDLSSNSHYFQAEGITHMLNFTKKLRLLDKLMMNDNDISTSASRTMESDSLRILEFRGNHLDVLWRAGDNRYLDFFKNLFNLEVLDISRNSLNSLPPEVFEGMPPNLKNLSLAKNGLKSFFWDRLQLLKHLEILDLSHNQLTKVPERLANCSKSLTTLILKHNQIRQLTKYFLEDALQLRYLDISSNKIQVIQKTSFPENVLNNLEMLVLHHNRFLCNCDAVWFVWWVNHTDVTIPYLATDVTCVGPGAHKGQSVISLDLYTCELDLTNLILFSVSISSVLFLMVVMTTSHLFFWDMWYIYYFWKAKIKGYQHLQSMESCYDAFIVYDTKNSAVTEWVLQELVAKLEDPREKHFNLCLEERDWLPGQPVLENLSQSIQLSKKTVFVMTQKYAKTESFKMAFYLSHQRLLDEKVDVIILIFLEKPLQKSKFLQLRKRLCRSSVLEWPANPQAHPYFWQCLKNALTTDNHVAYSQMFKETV
As to the kind of experiment: condition: only cells not stimulated with imiquimod; proximity ligation; Duolink in situ with anti-MyD88 and anti-TLR7 antibodies on fixed, permeabilised BMDCs not stimulated with imiquimod.

For the substance MyD88 (from UniProt P22366 1-296), the binding entry is “no binding”.
